Reference: patent US20200172486A1, “PYRIDONE COMPOUNDS AND AGRICULTURAL AND HORTICULTURAL FUNGICIDES CONTAINING THE SAME AS ACTIVE INGREDIENTS” (MITSUI CHEMICALS AGRO, INC., priority 2017, published 2020)
Some of these results come from one statement about several compounds together. At least one compound was matched to its structure with a doubt left.

Columns and labels:
[1] = tested on: gray mold fungi (Botrytis cinerea); test: Test Example B: tomato gray mold, spray test on potted tomato plants; settings: tomato (Oogata Fukuju), 250 ppm spray 2.5 ml/pot before inoculation, 2 to 3 days after inoculation
[2] = tested on: cabbage alternaria sooty spot fungi (Alternaia brassicicola); test: Test Example C: cabbage alternaria sooty spot, spray test on potted cabbage plants; settings: cabbage (Shikidori), 250 ppm spray 2.5 ml/pot before inoculation, 2 to 3 days after inoculation
[3] = tested on: cucumber anthracnose fungi (Colletotrichum orbiculare); test: Test Example H: cucumber anthracnose, spray test on potted cucumber plants; settings: cucumber (Sagami Hanjiro), 250 ppm spray 2.5 ml/pot before inoculation, 6 to 10 days after inoculation

SMILES | control value [1] | control value [2] | control value [3]
CCn1c(-c2c(F)cccc2F)c(N(C)C(C)=O)cc(Cl)c1=O [Compound 28] | > 50% |  | 
CCN(c1cc(Br)c(=O)n(CC)c1-c1ccccc1Cl)C(C)C [Compound 204] | > 50% |  | 
CCN(C(C)=O)c1cc(Cl)c(=O)n(CC)c1-c1ccc(F)cc1 [Compound 25] | > 50% |  | 
C#CCN(CC)c1cc(Cl)c(=O)n(CC)c1-c1ccc(F)cc1C [compound 393] | > 50% | > 50% | 
CCn1c(-c2ccc(F)cc2Cl)c(NC(=O)OC)cc(Cl)c1=O [Compound 42] |  | > 50% | > 50%
CCNc1cc(Br)c(=O)n(CC)c1-c1ccc(F)cc1C [compound 377] |  |  | > 50%
C#CCN(CC)c1cc(Cl)c(=O)n(CC)c1-c1ccccc1F [compound 382] | > 50% | > 50% | 
CCN(CC(F)F)c1cc(Cl)c(=O)n(CC)c1-c1ccccc1Cl [compound 406] |  | > 50% | > 50%
CCN(c1cc(Cl)c(=O)n(CC)c1-c1ccc(F)cc1Cl)C(C)C [Compound 215] | > 50% | > 50% | 
CCn1c(-c2ccc(F)cc2Cl)c(N(C)CC#N)cc(Cl)c1=O [compound 352] |  | > 50% | 
CCn1c(-c2ccc(F)cc2Cl)c(N(C)S(=O)(=O)CC)cc(Cl)c1=O [compound 364] |  | > 50% | 
CCn1c(-c2ccc(F)cc2C)c(N(C)CC(F)F)cc(Br)c1=O [compound 374] | > 50% | > 50% | 
CCn1c(-c2c(F)cc(F)cc2F)c(N(C)c2ccc(Cl)cc2)cc(Br)c1=O [Compound 127] |  |  | > 50%
CCn1c(-c2ccc(F)cc2)c(Nc2ccccc2)cc(Cl)c1=O [Compound 103] |  |  | > 50%
CCCN(CC)c1cc(Cl)c(=O)n(CC)c1-c1c(F)cccc1F [Compound 11] | > 50% |  | 
CCn1c(-c2ccc(F)cc2F)c(N2CCCC2)cc(Br)c1=O [compound 336] | > 50% | > 50% | 
CCn1c(-c2ccc(F)cc2)c(N2CCCCC2)cc(C#N)c1=O [Compound 12] | > 50% |  | 
CCn1c(-c2ccc(F)cc2Cl)c(N(CC(F)(F)F)C(=O)OC)cc(Br)c1=O [compound 409] | > 50% | > 50% | 
C#CCN(CC)c1cc(Cl)c(=O)n(CC)c1-c1ccccc1Br [compound 373] | > 50% | > 50% | 
CCn1c(-c2c(F)cc(F)cc2F)c(N(C)Cc2ccccc2)cc(Br)c1=O [Compound 194] |  | > 50% | 
C#CCN(C)c1cc(Br)c(=O)n(CC)c1-c1ccccc1Cl [compound 360] | > 50% | > 50% | 
CCn1c(-c2c(F)cc(F)cc2F)c(N(C)c2ccc(OC)cc2)cc(Br)c1=O [Compound 128] |  | > 50% | > 50%
CCn1c(-c2ccc(F)cc2Cl)c(N2CCCC2=O)cc(Cl)c1=O [Compound 40] |  | > 50% | 
CCn1c(-c2ccc(F)cc2Cl)c(N2CCCC2)cc(Cl)c1=O [Compound 43] |  | > 50% | > 50%

SMILES | control value [1] | control value [2] | control value [3]
CCN(c1ccccc1)c1cc(Cl)c(=O)n(CC)c1-c1ccc(F)cc1Br [compound 311] | > 50% | > 50% | 
CCN(C(C)=O)c1cc(Cl)c(=O)n(CC)c1-c1c(F)cc(F)cc1F [Compound 236] | > 50% | > 50% | 
CCN(C(C)=O)c1cc(Cl)c(=O)n(CC)c1-c1ccc(F)cc1Cl [Compound 39] |  |  | > 50%
CCn1c(-c2c(F)cccc2Cl)c(N)cc(Br)c1=O [compound 334] |  | > 50% | > 50%
CCn1c(-c2ccccc2F)c(NC(C)C)cc(Cl)c1=O [compound 384] |  | > 50% | > 50%
CCN(CC(F)F)c1cc(Br)c(=O)n(CC)c1-c1ccc(F)cc1C [compound 375] | > 50% | > 50% | 
CCn1c(-c2c(F)cc(F)cc2F)c(N(C)Cc2ccccc2)cc(Cl)c1=O [Compound 193] |  | > 50% | > 50%
CCN(CC)c1cc(Br)c(=O)n(CC)c1-c1ccccc1Cl [compound 367] | > 50% | > 50% | 
C#CCN(CC)c1cc(Br)c(=O)n(CC)c1-c1ccc(OC)cc1Cl [Compound 228] | > 50% | > 50% | 
CCn1c(-c2ccc(F)cc2Cl)c(N(C)CC#N)cc(Br)c1=O [compound 353] | > 50% | > 50% | 
CCn1c(-c2ccc(OC)cc2Cl)c(NC(C)=O)cc(Cl)c1=O [Compound 54] | > 50% | > 50% | 
CCN(c1cc(Cl)c(=O)n(CC)c1-c1ccc(F)cc1)C(C)C [Compound 167] | > 50% |  | 
CCn1c(-c2ccc(F)cc2C)c(N(C)C(C)C)cc(Br)c1=O [compound 359] | > 50% | > 50% | 
C#CCN(CC)c1cc(Br)c(=O)n(CC)c1-c1c(F)cccc1Cl [compound 329] | > 50% | > 50% | 
CCn1c(-c2c(F)cc(F)cc2F)c(N(C)c2ccc(C)cc2)cc(Br)c1=O [Compound 146] |  |  | > 50%
CCN(c1cc(Br)c(=O)n(CC)c1-c1ccc(F)cc1)C(C)C [Compound 168] | > 50% |  | 
CCn1c(-c2ccccc2Br)c(N(C)C(C)C)cc(Cl)c1=O [compound 369] | > 50% |  | 
CCN(c1cc(Cl)c(=O)n(CC)c1-c1ccccc1Cl)C(C)C [Compound 203] |  | > 50% | 
CCCCN(CCCC)c1cc(Cl)c(=O)n(CC)c1-c1ccc(F)cc1Cl [compound 418] |  | > 50% | 
CCn1c(-c2c(F)cccc2F)c(N=CN(C)C)cc(Cl)c1=O [Compound 6] |  | > 50% | > 50%
CCN(C)c1cc(Cl)c(=O)n(C)c1-c1c(F)cc(F)cc1F [Compound 81] | > 50% | > 50% | 
CCn1c(-c2ccc(F)cc2C)c(N)cc(Br)c1=O [compound 355] |  | > 50% | > 50%
CCN(c1cc(Br)c(=O)n(CC)c1-c1ccc(F)cc1Cl)C(C)C [Compound 216] | > 50% | > 50% | 
CCN(CC)c1cc(Cl)c(=O)n(CC)c1-c1ccccc1Br [compound 372] | > 50% | > 50% | 

SMILES | control value [1] | control value [2] | control value [3]
CCN(C)c1cc(Cl)c(=O)n(CC)c1-c1ccccc1Br [compound 368] | > 50% | > 50% | 
C#CCN(c1cc(Cl)c(=O)n(CC)c1-c1c(F)cc(F)cc1F)C(C)C [Compound 164] | > 50% |  | 
CCn1c(-c2ccc(F)cc2Cl)c(N(C)C(C)C)cc(Cl)c1=O [Compound 162] | > 50% | > 50% | 
C#Cc1cc(NC(=O)OC(C)(C)C)c(-c2ccc(F)cc2)n(CC)c1=O [Compound 96] | > 50% |  | 
CCN(C(C)=O)c1cc(Cl)c(=O)n(CC)c1-c1c(F)cccc1F [Compound 29] | > 50% | > 50% | 
CCn1c(-c2ccc(F)cc2Cl)c(N(C)C(=O)OC(C)(C)C)cc(Cl)c1=O [Compound 30] |  | > 50% | 
CCn1c(-c2ccc(F)cc2Cl)c(NS(=O)(=O)CC)cc(Cl)c1=O [compound 363] |  |  | > 50%
CCn1c(-c2c(F)cccc2F)c(NC(C)=O)cc(Cl)c1=O [Compound 26] |  | > 50% | 
C#CCN(C)c1cc(Cl)c(=O)n(CC)c1-c1ccccc1F [compound 381] | > 50% | > 50% | 
CCn1c(-c2ccc(F)cc2Cl)c(N2CCCCC2=O)cc(Cl)c1=O [Compound 41] |  | > 50% | 
CCN(Cc1ccccc1)c1cc(Br)c(=O)n(CC)c1-c1c(F)cc(F)cc1F [Compound 196] |  |  | > 50%
C#CCN(C)c1cc(Br)c(=O)n(CC)c1-c1ccccc1Br [compound 400] | > 50% | > 50% | 
CCN(C(=O)OC(C)(C)C)c1cc(Cl)c(=O)n(CC)c1-c1ccc(F)cc1Cl [Compound 31] |  | > 50% | 
C#CCN(CC)c1cc(Br)c(=O)n(CC)c1-c1ccc(F)cc1C [compound 379] | > 50% | > 50% | 
CCn1c(-c2ccc(F)cc2Cl)c(N(C)C(C)=O)cc(Cl)c1=O [Compound 38] |  |  | > 50%
CCN(Cc1ccccc1)c1cc(Cl)c(=O)n(CC)c1-c1c(F)cc(F)cc1F [Compound 195] |  |  | > 50%
CCN(CC)c1cc(Br)c(=O)n(CC)c1-c1ccccc1 [Compound 192] | > 50% |  | > 50%
CCN(c1ccccc1)c1cc(Br)c(=O)n(CC)c1-c1ccc(F)cc1Br [compound 312] |  | > 50% | 
CCN(CC)c1cc(Cl)c(=O)n(CC)c1-c1ccccc1 [Compound 191] |  |  | > 50%
CCN(c1cc(Cl)c(=O)n(CC)c1-c1ccccc1)C(C)C [Compound 187] |  |  | > 50%
C#CCN(C)c1cc(Cl)c(=O)n(CC)c1-c1ccccc1Br [compound 370] | > 50% | > 50% | 
CCn1c(-c2ccc(F)cc2Cl)c(NCC2CC2)cc(Cl)c1=O [compound 410] |  | > 50% | > 50%
CCn1c(-c2ccc(F)cc2C)c(NCC(F)F)cc(Br)c1=O [compound 356] |  |  | > 50%
CCN(C)C=Nc1cc(Cl)c(=O)n(CC)c1-c1c(F)cccc1F [Compound 7] |  | > 50% | 
